This note sets out measurements from PMC2515349.

Protein sequences, listed by entry. Tags and fused reporters are not part of them. Lines headed by an entry give the natural chain unless they say otherwise; changes in a name come on top.
UniProt P53618, whole entry, stated change not applied: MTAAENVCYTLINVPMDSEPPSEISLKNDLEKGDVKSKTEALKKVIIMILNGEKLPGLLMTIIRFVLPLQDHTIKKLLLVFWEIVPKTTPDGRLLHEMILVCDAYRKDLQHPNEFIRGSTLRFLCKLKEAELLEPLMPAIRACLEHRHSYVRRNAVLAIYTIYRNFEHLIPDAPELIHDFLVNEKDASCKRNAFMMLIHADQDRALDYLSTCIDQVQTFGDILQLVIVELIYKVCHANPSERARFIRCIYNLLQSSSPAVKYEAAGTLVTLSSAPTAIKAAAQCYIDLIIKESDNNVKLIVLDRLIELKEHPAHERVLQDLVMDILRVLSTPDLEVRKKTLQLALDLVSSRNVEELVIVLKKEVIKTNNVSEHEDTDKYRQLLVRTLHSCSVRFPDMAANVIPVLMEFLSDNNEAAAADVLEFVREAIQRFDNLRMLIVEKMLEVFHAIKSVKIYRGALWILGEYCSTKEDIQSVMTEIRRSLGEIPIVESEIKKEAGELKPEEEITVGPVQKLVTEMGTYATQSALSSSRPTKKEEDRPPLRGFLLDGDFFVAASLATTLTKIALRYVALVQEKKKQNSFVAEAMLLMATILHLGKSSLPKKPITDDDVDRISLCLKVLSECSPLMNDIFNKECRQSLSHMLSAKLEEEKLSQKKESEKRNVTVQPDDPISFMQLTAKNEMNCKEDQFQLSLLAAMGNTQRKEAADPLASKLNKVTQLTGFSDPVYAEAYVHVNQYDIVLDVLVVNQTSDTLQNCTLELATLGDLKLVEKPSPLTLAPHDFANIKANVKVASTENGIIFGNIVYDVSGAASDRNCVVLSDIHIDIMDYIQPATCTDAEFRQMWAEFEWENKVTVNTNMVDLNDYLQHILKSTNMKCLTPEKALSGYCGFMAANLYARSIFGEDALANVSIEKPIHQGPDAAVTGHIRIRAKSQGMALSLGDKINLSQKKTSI

The test has as its target β-COP (human (endogenous in CEM)) (UniProt P53618). The experiment in a line: co-IP; CEM T cells transduced with adenovirus (Figure 7C) or concentrated MSCV (Figure 8E), 20 mM NH4Cl for 16 hours, not cross-linked; lysed in 1% digitonin, 100 mM NaCl, 50 mM Tris pH 7.0, 1 mM CaCl2, 1 mM MgCl2; precipitated with anti-β-COP M3A5 cross-linked to beads; western blot for Nef.

Results are given in words; binding and its absence hold for the method and conditions named. In cells and extracts the contact can be indirect. A result given as binding can be weak or reduced; the word gives no strength.

Consider “HIV-1 Nef D123G (adenoviral) (from UniProt P03406)”, for which the binding result is recorded as “binds”. For the substance “HIV-1 Nef V10EΔ17–26 (adenoviral) (from UniProt P03406)”, the binding entry is on record as “binds weakly”.
